Some entries repeat one wording, which the source may state once for all of them.
Test system: MCF-7 human mammary cells
Test: Cellular uptake and nuclear incorporation by confocal microscopy
Format: cell-based
Conditions: for time at which cellular uptake is detectable: MCF-7, confocal microscopy; for localisation of fluorescence in the cell: MCF-7, highest drug concentrations, 24 hour exposure

Structure (SMILES)	time at which cellular uptake is detectable	localisation of fluorescence in the cell
COC(=O)c1cc(NC(=O)CCCOc2cc3c(cc2OC)C(=O)N2CCC[C@H]2C=N3)cn1C [Compound 21, (11aS) Methyl 4-[4-(7-methoxy-5-oxo-2,3,5,11a-tetrahydro-5H-pyrrolo[2,1-c][1,4]benzodiazepine-8-yloxy)-butyrylamino]-1-methyl-1H-pyrrole-2-carboxylate]	< 1 h	strong nuclear fluorescence
COC(=O)c1cc(NC(=O)c2cc(NC(=O)c3cc(NC(=O)CCCOc4cc5c(cc4OC)C(=O)N4CCC[C@H]4C=N5)cn3C)cn2C)cn1C [Compound 25, (11aS) Methyl 4-{[4-({4-[4-(7-Methoxy-6-oxo-2,3,5,11a-tetrahydro-5H-pyrrolo[2,1-c][1,4]benzodiazepine-8-yloxy)-butyrylamino]-1-methyl-1H-pyrrole-2-carbonyl]-amino)-1-methyl-1H-pyrrole-2-carbonyl]-amino}-1-methyl-1H-pyrrole-2-carboxylate]	3 h	strong nuclear fluorescence
COC(=O)c1cc(NC(=O)c2cc(NC(=O)CCCOc3cc4c(cc3OC)C(=O)N3CCC[C@H]3C=N4)cn2C)cn1C [Compound 23, (11aS) Methyl 4-({4-[4-(7-Methoxy-6-oxo-2,3,5,11a-tetrahydro-5H-pyrrolo[2,1-c][1,4]benzodiazepine-8-yloxy)-butyrylamino]-1-methyl-1H-pyrrole-2-carbonyl}-amino)-1-methyl-1H-pyrrole-2-carboxylate]	3 h	strong nuclear fluorescence

Source: patent publication US8637664B2, “Alkyl 4- [4- (5-oxo-2,3,5, 11a-tetrahydo-5H-pyrrolo [2, 1-c] [1,4] benzodiazepine-8-yloxy)-butyrylamino]-1H-pyrrole-2-carboxylate derivatives and related compounds for the treatment of a proliferative disease” (Spirogen SARL, priority 2005, dated 2014)
